Record: PubChem BioAssay AID504744 (Drosophila RNAi Screening Center, 2011)

Screen: 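Find genes whose loss alters insulin-driven dAkt phosphorylation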 (primary screen)
System: Drosophila Kc167 cells
Reagent: long dsRNA against Drosophila genes, 250 ng dsRNA per well of a 384-well plate
Time to read-out: 3 days of knock-down, then overnight serum-free starvation before stimulation
Treatment: bovine insulin at 387 nM for 10 minutes after 12 h without serum
Measured: 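Per-well phospho-dAkt level from an in-cell fluorescent antibody stain, divided by a DNA-dye signal; log2 residuals turned into z-scores that take cell number into account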
Active means: 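Hit in the insulin screen when the two-replicate mean z-score is more extreme than plus or minus 2.5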
In all, the deposit lists about 23,000 reagents; below is a random part of those that have a named target and a result. In the full data, 98 (0.43%) are marked active. 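Only hit calls are given; the phospho-dAkt signals, z-scores and hit direction were not deposited.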 Names joined by + are all predicted targets of the reagent.

no.	Target gene	DRSC id	Call
1	CG7276 (GeneID 39668)	DRSC10797	inactive
2	BCL7-like (GeneID 31890)	DRSC17729	inactive
3	CG30109 (GeneID 246461)	DRSC05675	inactive
4	CG11379 (GeneID 31062)	DRSC18629	inactive
5	Cht2 (GeneID 38223)	DRSC08650	inactive
6	CG14561 (GeneID 40447)	DRSC11722	inactive
7	CG32713 (GeneID 318166)	DRSC22766	inactive
8	CG42542 (GeneID 8674000)	DRSC15549	inactive
9	CG42542 (GeneID 8674000)	DRSC22264	inactive
10	His1:CG33816 + His1:CG33828 + His1:CG33819 + 21 more	DRSC21266	inactive
11	CG14316 (GeneID 42163)	DRSC14795	inactive
12	Nab2 (GeneID 42897)	DRSC14158	inactive
13	CG14286 (GeneID 42280)	DRSC14767	inactive
14	tej (GeneID 36590)	DRSC07219	inactive
15	CG13197 (GeneID 36253)	DRSC06322	inactive
16	Stoml2 (GeneID 37807)	DRSC04326	inactive
17	TTLL1B (GeneID 326203)	DRSC08594	inactive
18	rnh1 (GeneID 35746)	DRSC07673	inactive
19	Obp57a (GeneID 246670)	DRSC22047	inactive
20	CG2839 (GeneID 33244)	DRSC00544	inactive
21	RpL14 (GeneID 38983)	DRSC11269	inactive
22	CG14805 (GeneID 31146)	DRSC18554	inactive
23	Srp9 (GeneID 38883)	DRSC10973	inactive
24	CG4198 (GeneID 31445)	DRSC18354	inactive
25	CG31406 (GeneID 318715)	DRSC12777	inactive
26	Lectin-galC1 (GeneID 35216)	DRSC03362	inactive
27	Sf3a2 (GeneID 39456)	DRSC09801	inactive
28	CG18518 (GeneID 34932)	DRSC01509	inactive
29	Nhe2 (GeneID 35376)	DRSC03172	inactive
30	Nhe2 (GeneID 35376)	DRSC03377	inactive
31	CG1941 (GeneID 35718)	DRSC06802	inactive
32	CG10581 (GeneID 40326)	DRSC11623	inactive
33	CG14218 (GeneID 32949)	DRSC19575	inactive
34	PPO3 (GeneID 44513)	DRSC04325	inactive
35	LanB2 (GeneID 39118)	DRSC11208	inactive
36	Listericin (GeneID 36183)	DRSC07334	inactive
37	CG12659 (GeneID 50403)	DRSC17862	inactive
38	RIOK1 (GeneID 39309)	DRSC09853	inactive
39	Gr58b (GeneID 37502)	DRSC04140	inactive
40	Or83c (GeneID 40744)	DRSC12359	inactive
41	MRP (GeneID 34686)	DRSC02942	inactive
42	CG13405 (GeneID 38016)	DRSC08310	inactive
43	CG42539 (retired record) (GeneID 8674027)	DRSC13691	inactive
44	CG42539 (retired record) (GeneID 8674027)	DRSC21639	inactive
45	lin-28 (GeneID 38639)	DRSC10261	inactive
46	Aprt (GeneID 48224)	DRSC08139	inactive
47	CG7058 (GeneID 32873)	DRSC20021	inactive
48	CG14313 (GeneID 42176)	DRSC14792	inactive
49	CG10445 (GeneID 40938)	DRSC14247	inactive
50	sev (GeneID 32039)	DRSC20372	inactive
51	AQP (GeneID 36456)	DRSC06122	inactive
52	CG18675 (GeneID 50169)	DRSC08536	inactive
53	shg (GeneID 37386)	DRSC04714	inactive
54	caz (GeneID 32587)	DRSC20317	inactive
55	caz (GeneID 32587)	DRSC22594	inactive
56	HUWE1 (GeneID 32510)	DRSC20089	inactive
57	G9a (GeneID 30971)	DRSC18619	inactive
58	BBS9 (GeneID 37439)	DRSC04257	inactive
59	CG14950 (retired record) (GeneID 38334)	DRSC08409	inactive
60	CG4066 (GeneID 41493)	DRSC15541	inactive
61	Ugt307A1 (GeneID 33993)	DRSC02138	inactive
62	Akap200 (GeneID 34170)	DRSC01864	inactive
63	VhaPPA1-1 (GeneID 45247)	DRSC16170	inactive
64	Sap30 (GeneID 32664)	DRSC19916	inactive
65	Pcp (GeneID 33985)	DRSC03395	inactive
66	park (GeneID 40336)	DRSC11618	inactive
67	Scsalpha2 (GeneID 42326)	DRSC16003	inactive
68	Det (GeneID 42077)	DRSC14489	inactive
69	CG3500 (GeneID 37697)	DRSC04379	inactive
70	ND-PDSW (GeneID 44228)	DRSC00715	inactive
71	ATPsynE (GeneID 41745)	DRSC15476	inactive
72	CG2111 (GeneID 31995)	DRSC18205	inactive
73	CG3349 (GeneID 39623)	DRSC10359	inactive
74	Ilk (GeneID 53573)	DRSC11868	inactive
75	Usp5 (GeneID 38375)	DRSC08244	inactive
76	CG8379 (GeneID 41060)	DRSC16414	inactive
77	CG4607 (GeneID 31653)	DRSC18375	inactive
78	CG8051 (GeneID 32925)	DRSC20077	inactive
79	CG14937 (GeneID 34591)	DRSC02419	inactive
80	Brd (GeneID 39620)	DRSC09685	inactive
81	sm (GeneID 37254)	DRSC05795	inactive
82	sm (GeneID 37254)	DRSC07686	inactive
83	lectin-37Db (GeneID 3346221)	DRSC03279	inactive
84	CG6800 (GeneID 42562)	DRSC16119	inactive
85	Sbf (GeneID 41427)	DRSC16852	inactive
86	Sfp93F (GeneID 8673963)	DRSC13505	inactive
87	CG32365 (GeneID 38876)	DRSC10040	inactive
88	CG32365 (GeneID 38876)	DRSC10041	inactive
89	CG32365 (GeneID 38876)	DRSC10977	inactive
90	Cln7 (GeneID 38813)	DRSC11005	inactive
91	CG31266 (GeneID 42071)	DRSC15747	inactive
92	RhoGAP102A (GeneID 43781)	DRSC17110	inactive
93	RhoGAP102A (GeneID 43781)	DRSC17145	inactive
94	Or42a (GeneID 35514)	DRSC04912	inactive
95	CG14613 (GeneID 33133)	DRSC20625	inactive
96	slif (GeneID 40510)	DRSC11635	inactive
97	CG10332 (retired record) + IM18	DRSC04064	inactive
98	Prosap (GeneID 50225)	DRSC06382	inactive
99	Prosap (GeneID 50225)	DRSC07081	inactive
100	Nthl1 (GeneID 35365)	DRSC03183	inactive
101	CG31815 (GeneID 318959)	DRSC01548	inactive
102	CG11905 (GeneID 39895)	DRSC09863	inactive
103	CG33346 (GeneID 2768690)	DRSC22898	inactive
104	Eaf (GeneID 35660)	DRSC05050	inactive
105	Eaf (GeneID 35660)	DRSC06052	inactive
106	Eaf (GeneID 35660)	DRSC22028	inactive
107	e (GeneID 42521)	DRSC16936	inactive
108	Ntf-2 (GeneID 33078)	DRSC20552	inactive
109	CG32181 (GeneID 317897)	DRSC22635	inactive
110	Amun (GeneID 32123)	DRSC19847	inactive
111	CG30471 (GeneID 246633)	DRSC07096	inactive
112	IP3K1 (GeneID 34300)	DRSC02734	inactive
113	E(spl)mgamma-HLH (GeneID 43151)	DRSC16699	inactive
114	CG13133 (GeneID 34342)	DRSC02230	inactive
115	CG18622 (GeneID 42044)	DRSC15360	inactive
116	Galphaf (GeneID 39861)	DRSC11171	inactive
117	Gr64d + Gr64e	DRSC08446	inactive
118	Hel89B (GeneID 41943)	DRSC16700	inactive
119	Hel89B (GeneID 41943)	DRSC21575	inactive
120	CG14609 (GeneID 40864)	DRSC12553	inactive
121	CG17026 (GeneID 39739)	DRSC10237	inactive
122	CG32269 + CG32270	DRSC08195	inactive
123	CG4025 (GeneID 31177)	DRSC18523	inactive
124	CG3036 (GeneID 33695)	DRSC00260	inactive
125	CG3036 (GeneID 33695)	DRSC00562	inactive
126	PH4alphaSG1 (GeneID 326112)	DRSC15080	inactive
127	Pldn (GeneID 39315)	DRSC10137	inactive
128	CG31516 (GeneID 318776)	DRSC11994	inactive
129	CG4480 (GeneID 34864)	DRSC02750	inactive
130	CG34150 (GeneID 4379863)	DRSC13689	inactive
131	NfI (GeneID 43782)	DRSC17158	inactive
132	scramb1 (GeneID 326186)	DRSC09724	inactive
133	scramb1 (GeneID 326186)	DRSC10667	inactive
134	scramb1 (GeneID 326186)	DRSC10668	inactive
135	CG43339 + CG43338	DRSC02466	inactive
136	twz (GeneID 37456)	DRSC04069	inactive
137	hth (GeneID 41273)	DRSC16967	inactive
138	CG10993 (GeneID 32344)	DRSC19362	inactive
139	betaCOP (GeneID 32820)	DRSC20312	inactive
140	tbrd-1 (GeneID 42823)	DRSC14601	inactive
141	BomT2 (GeneID 50208)	DRSC06631	inactive
142	Rep (GeneID 37246)	DRSC07526	inactive
143	mei-S332 (GeneID 37523)	DRSC04704	inactive
144	zuc (GeneID 34609)	DRSC02160	inactive
145	CG7497 (GeneID 39966)	DRSC10857	inactive
146	CG9394 (GeneID 37399)	DRSC04550	inactive
147	Ac13E (GeneID 32485)	DRSC19325	inactive
148	Cdk9 (GeneID 37586)	DRSC04601	inactive
149	dj (GeneID 40838)	DRSC12625	inactive
150	Tango8 (GeneID 50210)	DRSC06474	inactive
151	msb1l (GeneID 35254)	DRSC03572	inactive
152	Ripalpha (GeneID 34351)	DRSC02657	inactive
153	CG33178 (GeneID 318913)	DRSC19950	inactive
154	Ran-like (GeneID 39666)	DRSC10918	inactive
155	CG13836 (retired record) (GeneID 42741)	DRSC14686	inactive
156	esc (GeneID 34595)	DRSC03529	inactive
157	CG8620 (GeneID 50310)	DRSC11020	inactive

13 entries from above in another layout.
| Target gene | DRSC id | Call |
| --- | --- | --- |
| Usp5 (GeneID 38375) | DRSC08244 | inactive |
| CG8379 (GeneID 41060) | DRSC16414 | inactive |
| CG4607 (GeneID 31653) | DRSC18375 | inactive |
| CG8051 (GeneID 32925) | DRSC20077 | inactive |
| CG14937 (GeneID 34591) | DRSC02419 | inactive |
| Brd (GeneID 39620) | DRSC09685 | inactive |
| sm (GeneID 37254) | DRSC05795 | inactive |
| sm (GeneID 37254) | DRSC07686 | inactive |
| lectin-37Db (GeneID 3346221) | DRSC03279 | inactive |
| CG6800 (GeneID 42562) | DRSC16119 | inactive |
| Sbf (GeneID 41427) | DRSC16852 | inactive |
| Sfp93F (GeneID 8673963) | DRSC13505 | inactive |
| CG32365 (GeneID 38876) | DRSC10040 | inactive |
